Measurements taken from paper PMC10535407.
For at least one entry, the source does not settle the construct or the ends of the probe.

Target: CcpA (Bacillus licheniformis) (UniProt Q65G28)
Assay: EMSA
Settings: recombinant protein; label: biotin (primer Pzwf-Bio-F); probe letters rebuilt from the primers and the genome

ATATCCTTTCCTCCTGCTAAAAACTTCATCTATCACAAGCATACAGGAAGTCTGAGAAAAAAGAAACGCCGGCTTCACGCCATGCTATGCAACTAAATACCCTGCCCGTTTTCAGTAAACTTTTCATACGATTCGATCTCAAATGTTTGCTTTAAAGGATTATTAGCTTTAAAATGAAGAAAATAAACTTAGCTTCGAATAAAGTGAGGTACGTTTAAT (double strand) [zwF promoter fragment]
binding result: binds
